From patent US20190160257A1, “METHODS AND SYSTEMS FOR INHIBITING VASCULAR INFLAMMATION” (Mercator MedSystems, Inc., priority 2002, published 2019)

Details: after adventitial infusion of dosages lower than those approved for soft-tissue infiltration

## C[C@@H]1C[C@H]2[C@@H]3CCC4=CC(=O)C=C[C@]4(C)[C@@]3(F)[C@@H](O)C[C@]2(C)[C@@]1(O)C(=O)CO [dexamethasone]
  retention in blood vessel wall and adventitia at therapeutic concentrations: at least 7 days
